{
  "source": "PubChem BioAssay AID330",
  "about": "(DTP/NCI, 2004)",
  "system": "P388 leukemia ip, CD2F1 mice, survival T/C",
  "assay": "NCI In Vivo Anticancer Drug Screen. Data for tumor model P388 Leukemia (intraperitoneal) in CD2F1 (CDF1) mice",
  "conditions": "T/C endpoint: median survival time, higher T/C = longer survival",
  "key": {"[1]": {"conditions": "dose: 50.0 mg/kg/injection, schedule: Q01DX009 (ip), vehicle: saline with Tween-80"}, "[2]": {"conditions": "dose: 100.0 mg/kg/injection, schedule: Q01DX009 (ip), vehicle: saline with Tween-80"}, "[3]": {"conditions": "dose: 100.0 mg/kg/injection, schedule: Q01DX009 (ip), vehicle: water"}, "[4]": {"conditions": "dose: 12.5 mg/kg/injection, schedule: Q01DX009 (ip), vehicle: saline"}, "[5]": {"conditions": "dose: 30.0 mg/kg/injection, schedule: Q01DX005 (ip), vehicle: saline with Tween-80"}, "[6]": {"conditions": "dose: 60.0 mg/kg/injection, schedule: Q01DX005 (ip), vehicle: saline with Tween-80"}, "[7]": {"conditions": "dose: 120.0 mg/kg/injection, schedule: Q01DX005 (ip), vehicle: saline with Tween-80"}, "[8]": {"conditions": "dose: 240.0 mg/kg/injection, schedule: Q01DX005 (ip), vehicle: saline with Tween-80"}, "[9]": {"conditions": "dose: 50.0 mg/kg/injection, schedule: Q01DX009 (ip), vehicle: Klucel (hydroxypropylcellulose) (HPC)"}, "[10]": {"conditions": "dose: 100.0 mg/kg/injection, schedule: Q01DX009 (ip), vehicle: Klucel (hydroxypropylcellulose) (HPC)"}, "[11]": {"conditions": "dose: 200.0 mg/kg/injection, schedule: Q01DX009 (ip), vehicle: Klucel (hydroxypropylcellulose) (HPC)"}, "[12]": {"conditions": "dose: 200.0 mg/kg/injection, schedule: Q01DX009 (ip), vehicle: saline with Tween-80"}, "[13]": {"conditions": "dose: 100.0 mg/kg/injection, schedule: Q04DX002 (ip), vehicle: saline with Tween-80"}, "[14]": {"conditions": "dose: 200.0 mg/kg/injection, schedule: Q04DX002 (ip), vehicle: saline with Tween-80"}, "[15]": {"conditions": "dose: 400.0 mg/kg/injection, schedule: Q04DX002 (ip), vehicle: saline with Tween-80"}, "[16]": {"conditions": "dose: 100.0 mg/kg/injection, schedule: Q01DX005 (ip), vehicle: saline with Tween-80"}, "[17]": {"conditions": "dose: 200.0 mg/kg/injection, schedule: Q01DX005 (ip), vehicle: saline with Tween-80"}},
  "note": "The list does not hold the whole screen: it gathers tests that were run many times, whatever their T/C, doses with no T/C, and many T/C values between a quarter and a half above the control. Other doses and runs of a compound stand elsewhere. T/C gives the treated animals as a percentage of the vehicle group. Some doses have a count of surviving animals in place of a T/C: the source holds a T/C of zero for them, seemingly a mark for toxic or unscored doses. Some doses without a T/C left all or most animals alive at the check, yet need not have been tolerated: the source hardly ever lists a survival T/C far under the control, and the zero likely stands for such cases as well. Survivors were counted at the toxicity check, usually on the fifth day, unless a day is given; later deaths do not show. Schedules are NCI's codes, read here as Q, the interval in days (D) or hours (H), X, the number of doses. Some entries were tested several times; their values stand side by side, smallest first. Where survival is the endpoint, this PubChem deposit counts one and a half times the control or more as active, and values a quarter to a half above the control carry no call in these data; other NCI protocols may use other cut-offs. Some T/C values carry the count of animals alive at the toxicity check (mostly the fifth day); without a count, all were alive then.",
  "data": [
    {"smiles": "NC(CSC(c1ccccc1)(c1ccccc1)c1ccc2ccccc2c1)C(=O)O", "note": "(stereo unspecified)", "values": [
      {"measurement": "survivor count", "setting": "[1]", "value": "6 of 6"},
      {"measurement": "survivor count", "setting": "dose: 50.0 mg/kg/injection, schedule: Q01DX009 (ip), vehicle: water", "value": "6 of 6"},
      {"measurement": "survivor count", "setting": "dose: 66.0 mg/kg/injection, schedule: Q04DX003 (ip), vehicle: saline", "value": "3 of 6"},
      {"measurement": "survivor count", "setting": "[2]", "value": "6 of 6"},
      {"measurement": "survivor count", "setting": "[3]", "value": "4 of 6"},
      {"measurement": "survivor count", "setting": "dose: 100.0 mg/kg/injection, schedule: Q04DX003 (ip), vehicle: saline", "value": "5 of 6"},
      {"measurement": "survivor count", "setting": "dose: 150.0 mg/kg/injection, schedule: Q04DX003 (ip), vehicle: saline", "value": "5 of 6"}
    ]},
    {"smiles": "CN(C)CC(CN1CCCC1)C(=O)c1ccccc1", "note": "(stereo unspecified)", "values": [
      {"measurement": "T/C", "setting": "[4]", "value": "127 and 131 % of control"},
      {"measurement": "survivor count", "setting": "dose: 100.0 mg/kg/injection, schedule: Q01DX009 (ip), vehicle: saline", "value": "0 of 6"},
      {"measurement": "survivor count", "setting": "dose: 200.0 mg/kg/injection, schedule: Q01DX009 (ip), vehicle: saline", "value": "0 of 6"}
    ]},
    {"smiles": "COCC1CCCN1", "note": "(stereo unspecified)", "values": [
      {"measurement": "survivor count", "setting": "dose: 400.0 mg/kg/injection, schedule: Q04DX002 (ip), vehicle: saline", "value": "1 of 6"}
    ]},
    {"smiles": "COc1cccc(CN2CCNCC2)c1", "values": [
      {"measurement": "survivor count", "setting": "[3]", "value": "5 of 6"}
    ]},
    {"smiles": "CC(C)=CCCc1ccc2c(c1)C(=O)c1cc3c(cc1C2=O)OCO3", "values": [
      {"measurement": "survivor count", "setting": "[5]", "value": "6 of 6"},
      {"measurement": "survivor count", "setting": "[6]", "value": "6 of 6"},
      {"measurement": "survivor count", "setting": "[7]", "value": "6 of 6"},
      {"measurement": "survivor count", "setting": "[8]", "value": "6 of 6"}
    ]},
    {"smiles": "O=C(CC(=O)N1CCN=C1Nc1c(Cl)cccc1Cl)c1ccc(Cl)cc1", "values": [
      {"measurement": "survivor count", "setting": "[9]", "value": "5 of 6"},
      {"measurement": "survivor count", "setting": "[10]", "value": "3 of 6"},
      {"measurement": "survivor count", "setting": "[11]", "value": "1 of 6"}
    ]},
    {"smiles": "CC(C)(C)SC(=O)c1ccco1", "values": [
      {"measurement": "survivor count", "setting": "[12]", "value": "4 of 6"}
    ]},
    {"smiles": "COc1ccc(/C(=N\\O)c2nccc3cc(OC)c(OC)cc23)cc1OC", "values": [
      {"measurement": "survivor count", "setting": "[7]", "value": "6 of 6"},
      {"measurement": "survivor count", "setting": "[8]", "value": "6 of 6"}
    ]},
    {"smiles": "CCOc1cc(C=Nc2cc(Cl)c(O)c(Cl)c2)ccc1N(CCCl)CCCl", "values": [
      {"measurement": "T/C", "setting": "dose: 6.25 mg/kg/injection, schedule: Q04DX003 (ip), vehicle: saline with Tween-80", "value": "136 % of control"},
      {"measurement": "survivor count", "setting": "[1]", "value": "6 of 6"}
    ]},
    {"smiles": "O=Cc1cccc(C=O)c1", "values": [
      {"measurement": "survivor count", "setting": "dose: 5.0 mg/kg/injection, schedule: Q04DX002 (ip), vehicle: saline with Tween-80", "value": "6 of 6"},
      {"measurement": "survivor count", "setting": "dose: 10.0 mg/kg/injection, schedule: Q04DX002 (ip), vehicle: saline with Tween-80", "value": "6 of 6"},
      {"measurement": "survivor count", "setting": "dose: 20.0 mg/kg/injection, schedule: Q04DX002 (ip), vehicle: saline with Tween-80", "value": "1 of 6"},
      {"measurement": "survivor count", "setting": "[13]", "value": "0 of 6"},
      {"measurement": "survivor count", "setting": "[14]", "value": "0 of 6"},
      {"measurement": "survivor count", "setting": "[15]", "value": "0 of 6"}
    ]},
    {"smiles": "O=C1NC(=O)C2(CCCc3ccc(N(CCCl)CCCl)cc32)N1", "note": "(stereo unspecified)", "values": [
      {"measurement": "T/C", "setting": "dose: 25.0 mg/kg/injection, schedule: Q04DX003 (ip), vehicle: saline with Tween-80", "value": "145 % of control"},
      {"measurement": "survivor count", "setting": "[2]", "value": "6 of 6"},
      {"measurement": "survivor count", "setting": "[12]", "value": "4 of 6"},
      {"measurement": "T/C", "setting": "dose: 200.0 mg/kg/injection, schedule: Q04DX003 (ip), vehicle: saline with Tween-80", "value": "127 % of control [4 of 6 alive]"},
      {"measurement": "survivor count", "setting": "dose: 300.0 mg/kg/injection, schedule: Q04DX003 (ip), vehicle: saline with Tween-80", "value": "4 of 6"}
    ]},
    {"smiles": "CC(=O)O.CC(=O)O.CC(=O)O.CC(=O)O.O=C(O)C1C[N-]CC(C(=O)O)C1.O=C(O)C1C[N-]CC(C(=O)O)C1.[Cu+].[Cu+]", "note": "(stereo unspecified)", "values": [
      {"measurement": "survivor count", "setting": "dose: 25.0 mg/kg/injection, schedule: Q01DX005 (ip), vehicle: suspension in saline", "value": "0 of 6"},
      {"measurement": "survivor count", "setting": "dose: 50.0 mg/kg/injection, schedule: Q01DX005 (ip), vehicle: suspension in saline", "value": "0 of 6"},
      {"measurement": "survivor count", "setting": "dose: 100.0 mg/kg/injection, schedule: Q01DX005 (ip), vehicle: suspension in saline", "value": "0 of 6"},
      {"measurement": "survivor count", "setting": "dose: 200.0 mg/kg/injection, schedule: Q01DX005 (ip), vehicle: suspension in saline", "value": "0 of 6"}
    ]},
    {"smiles": "O=C1CCC(=O)c2c1c(O)c1c(O)ccc(O)c1c2O", "values": [
      {"measurement": "survivor count", "setting": "dose: 50.0 mg/kg/injection, schedule: Q01DX005 (ip), vehicle: saline with Tween-80", "value": "5 of 5"},
      {"measurement": "survivor count", "setting": "[16]", "value": "5 of 5"},
      {"measurement": "survivor count", "setting": "[17]", "value": "5 of 5"}
    ]},
    {"smiles": "CC(C)=CCC(C)/C(=N\\[N+](C)(C)C)c1ccccc1", "note": "(stereo unspecified)", "values": [
      {"measurement": "survivor count", "setting": "[4]", "value": "0 of 6"},
      {"measurement": "survivor count", "setting": "dose: 50.0 mg/kg/injection, schedule: Q01DX009 (ip), vehicle: saline", "value": "0 of 6"}
    ]},
    {"smiles": "CC1=NN(c2cccc(S(=O)(=O)O)c2)C(=O)C1", "values": [
      {"measurement": "survivor count", "setting": "dose: 400.0 mg/kg/injection, schedule: Q01DX009 (ip), vehicle: saline", "value": "6 of 6"}
    ]},
    {"smiles": "CN1CC2(CO)C(c3ccccn3)N(C)C(c3ccccn3)C(CO)(C1)C2O", "note": "(stereo unspecified)", "values": [
      {"measurement": "survivor count", "setting": "[8]", "value": "0 of 6"}
    ]},
    {"smiles": "O=C1CN(C(=O)Nc2ccc(Cl)c(Cl)c2)C(=S)N1", "values": [
      {"measurement": "survivor count", "setting": "[9]", "value": "4 of 6 and 5 of 6"},
      {"measurement": "survivor count", "setting": "[10]", "value": "1 of 6"},
      {"measurement": "survivor count", "setting": "[11]", "value": "0 of 6"}
    ]},
    {"smiles": "COc1ccc(CCNC(=O)CC2CCN(C)CC2)cc1OC", "values": [
      {"measurement": "survivor count", "setting": "dose: 400.0 mg/kg/injection, schedule: Q04DX003 (ip), vehicle: saline with Tween-80", "value": "0 of 6"}
    ]},
    {"smiles": "C[C@H]1CCC2=C(C1)NC(N)=NC2(C)C", "values": [
      {"measurement": "survivor count", "setting": "[13]", "value": "0 of 6"},
      {"measurement": "survivor count", "setting": "[14]", "value": "0 of 6"},
      {"measurement": "survivor count", "setting": "[15]", "value": "0 of 6"}
    ]},
    {"smiles": "Nc1nnc(COc2ccc(Cl)cc2)n1N", "values": [
      {"measurement": "survivor count", "setting": "[8]", "value": "0 of 6"}
    ]},
    {"smiles": "CCCCCCCCCc1cccc(N2C(N)=NC(N)=NC2(C)C)c1", "values": [
      {"measurement": "survivor count", "setting": "dose: 15.0 mg/kg/injection, schedule: Q01DX005 (ip), vehicle: saline with Tween-80", "value": "3 of 6"},
      {"measurement": "survivor count", "setting": "[5]", "value": "3 of 6"},
      {"measurement": "survivor count", "setting": "[6]", "value": "3 of 6"},
      {"measurement": "survivor count", "setting": "[7]", "value": "0 of 6"},
      {"measurement": "survivor count", "setting": "[8]", "value": "0 of 6"}
    ]},
    {"smiles": "Cc1cccc(/C=N/Nc2cc(C)c3ccccc3n2)n1", "values": [
      {"measurement": "survivor count", "setting": "[16]", "value": "2 of 6"},
      {"measurement": "survivor count", "setting": "[17]", "value": "3 of 6"}
    ]}
  ]
}
